The supplement of paper PMC10849652
The list shows a part of the results.

The chains behind the UniProt entries cited, without tags or fusion partners. Where a name states a change or a piece, a line headed by the entry shows the natural chain unless it says otherwise.
UniProt O43684, whole entry, looked up: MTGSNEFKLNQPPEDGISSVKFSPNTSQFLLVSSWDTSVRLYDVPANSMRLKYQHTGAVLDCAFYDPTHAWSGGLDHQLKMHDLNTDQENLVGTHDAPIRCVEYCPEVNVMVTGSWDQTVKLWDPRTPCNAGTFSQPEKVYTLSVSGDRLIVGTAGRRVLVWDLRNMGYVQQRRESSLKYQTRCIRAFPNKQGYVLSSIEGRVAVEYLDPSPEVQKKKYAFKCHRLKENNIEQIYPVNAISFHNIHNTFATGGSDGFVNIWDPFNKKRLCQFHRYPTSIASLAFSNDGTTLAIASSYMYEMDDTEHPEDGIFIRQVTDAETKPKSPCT
UniProt O95873: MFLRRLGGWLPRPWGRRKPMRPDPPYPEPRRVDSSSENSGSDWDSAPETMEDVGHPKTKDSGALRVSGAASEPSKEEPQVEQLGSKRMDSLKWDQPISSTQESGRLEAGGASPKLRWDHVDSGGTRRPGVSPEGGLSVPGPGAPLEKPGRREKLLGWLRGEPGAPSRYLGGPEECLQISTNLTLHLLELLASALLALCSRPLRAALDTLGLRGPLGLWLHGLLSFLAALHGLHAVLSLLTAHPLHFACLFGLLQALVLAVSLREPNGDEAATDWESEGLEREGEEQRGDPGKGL
UniProt Q6UWU4: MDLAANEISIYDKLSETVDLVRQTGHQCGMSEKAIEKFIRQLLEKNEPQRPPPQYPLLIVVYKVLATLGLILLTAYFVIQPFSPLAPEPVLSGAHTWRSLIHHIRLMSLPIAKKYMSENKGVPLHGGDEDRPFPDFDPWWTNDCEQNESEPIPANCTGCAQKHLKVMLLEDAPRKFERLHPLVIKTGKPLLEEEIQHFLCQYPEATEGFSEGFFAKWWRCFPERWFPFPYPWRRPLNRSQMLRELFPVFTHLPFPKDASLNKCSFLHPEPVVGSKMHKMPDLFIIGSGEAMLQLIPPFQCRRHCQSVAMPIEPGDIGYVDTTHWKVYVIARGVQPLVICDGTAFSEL
UniProt O43709: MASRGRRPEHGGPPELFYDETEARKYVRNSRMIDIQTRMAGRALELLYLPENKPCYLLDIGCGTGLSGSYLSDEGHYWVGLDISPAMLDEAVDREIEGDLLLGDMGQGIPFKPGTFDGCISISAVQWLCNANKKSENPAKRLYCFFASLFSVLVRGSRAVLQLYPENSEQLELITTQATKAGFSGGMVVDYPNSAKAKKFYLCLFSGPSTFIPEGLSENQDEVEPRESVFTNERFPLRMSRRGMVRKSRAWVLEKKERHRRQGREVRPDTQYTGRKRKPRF
UniProt Q9Y426: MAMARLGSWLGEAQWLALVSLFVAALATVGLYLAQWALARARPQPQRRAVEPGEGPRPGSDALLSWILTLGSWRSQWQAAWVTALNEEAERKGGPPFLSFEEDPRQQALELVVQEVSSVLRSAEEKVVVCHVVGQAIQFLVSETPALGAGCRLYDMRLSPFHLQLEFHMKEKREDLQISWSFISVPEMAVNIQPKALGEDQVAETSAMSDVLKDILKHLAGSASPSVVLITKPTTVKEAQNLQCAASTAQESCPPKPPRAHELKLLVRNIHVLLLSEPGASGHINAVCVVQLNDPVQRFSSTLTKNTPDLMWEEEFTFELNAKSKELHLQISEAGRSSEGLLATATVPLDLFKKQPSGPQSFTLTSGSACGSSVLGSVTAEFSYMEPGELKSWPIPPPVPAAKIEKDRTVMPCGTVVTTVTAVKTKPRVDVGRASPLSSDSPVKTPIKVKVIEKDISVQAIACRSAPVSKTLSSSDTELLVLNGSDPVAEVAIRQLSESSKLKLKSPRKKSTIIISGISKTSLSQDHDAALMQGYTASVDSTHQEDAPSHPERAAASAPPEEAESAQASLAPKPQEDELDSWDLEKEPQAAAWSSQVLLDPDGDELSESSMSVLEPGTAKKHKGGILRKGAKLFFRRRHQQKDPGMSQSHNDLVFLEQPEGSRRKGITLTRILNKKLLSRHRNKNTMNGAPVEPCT
UniProt P35613: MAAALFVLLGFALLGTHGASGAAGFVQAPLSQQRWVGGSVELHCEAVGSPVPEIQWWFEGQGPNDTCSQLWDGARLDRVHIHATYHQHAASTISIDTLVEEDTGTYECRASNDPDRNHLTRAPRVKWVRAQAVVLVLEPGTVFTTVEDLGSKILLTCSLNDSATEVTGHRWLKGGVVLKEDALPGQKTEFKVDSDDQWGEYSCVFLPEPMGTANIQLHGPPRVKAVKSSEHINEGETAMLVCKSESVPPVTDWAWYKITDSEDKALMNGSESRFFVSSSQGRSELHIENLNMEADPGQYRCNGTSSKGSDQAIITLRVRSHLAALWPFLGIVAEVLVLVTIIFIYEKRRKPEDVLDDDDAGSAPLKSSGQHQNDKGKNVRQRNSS
UniProt Q9Y376: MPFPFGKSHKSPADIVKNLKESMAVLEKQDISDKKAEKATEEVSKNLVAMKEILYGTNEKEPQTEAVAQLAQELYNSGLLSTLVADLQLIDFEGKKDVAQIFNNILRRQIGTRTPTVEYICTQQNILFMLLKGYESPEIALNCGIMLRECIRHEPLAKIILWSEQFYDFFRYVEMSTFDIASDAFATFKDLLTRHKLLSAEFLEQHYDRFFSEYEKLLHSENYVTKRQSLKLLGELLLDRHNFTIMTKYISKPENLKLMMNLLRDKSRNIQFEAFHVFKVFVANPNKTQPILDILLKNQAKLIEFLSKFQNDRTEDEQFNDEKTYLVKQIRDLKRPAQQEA
UniProt Q9Y2V2: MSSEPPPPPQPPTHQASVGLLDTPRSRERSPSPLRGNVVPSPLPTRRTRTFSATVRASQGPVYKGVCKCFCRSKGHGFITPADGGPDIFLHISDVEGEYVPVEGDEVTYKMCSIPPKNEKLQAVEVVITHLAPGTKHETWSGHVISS
UniProt Q07021: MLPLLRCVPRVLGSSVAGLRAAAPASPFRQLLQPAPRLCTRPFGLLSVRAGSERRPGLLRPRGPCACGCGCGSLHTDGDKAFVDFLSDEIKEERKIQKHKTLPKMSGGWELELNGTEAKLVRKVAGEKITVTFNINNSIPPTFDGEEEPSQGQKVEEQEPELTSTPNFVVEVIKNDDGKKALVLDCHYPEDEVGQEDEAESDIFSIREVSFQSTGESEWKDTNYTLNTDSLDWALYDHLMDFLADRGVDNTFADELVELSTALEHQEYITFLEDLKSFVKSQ
UniProt Q9BVC5: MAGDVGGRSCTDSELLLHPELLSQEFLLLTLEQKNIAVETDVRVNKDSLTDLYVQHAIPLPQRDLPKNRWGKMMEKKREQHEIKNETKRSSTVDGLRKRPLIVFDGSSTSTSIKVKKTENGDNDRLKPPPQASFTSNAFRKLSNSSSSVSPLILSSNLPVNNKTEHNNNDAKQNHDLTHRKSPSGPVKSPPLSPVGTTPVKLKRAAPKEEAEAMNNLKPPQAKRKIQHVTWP
UniProt O43852: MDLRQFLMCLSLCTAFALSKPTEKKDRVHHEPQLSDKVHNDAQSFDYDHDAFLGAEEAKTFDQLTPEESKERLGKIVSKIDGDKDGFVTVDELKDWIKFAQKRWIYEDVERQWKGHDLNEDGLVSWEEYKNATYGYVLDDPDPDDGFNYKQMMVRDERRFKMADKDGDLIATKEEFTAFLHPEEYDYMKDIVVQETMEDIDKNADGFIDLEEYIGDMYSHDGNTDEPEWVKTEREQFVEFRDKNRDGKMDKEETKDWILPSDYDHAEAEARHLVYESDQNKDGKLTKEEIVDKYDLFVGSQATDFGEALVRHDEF
UniProt Q49AR2: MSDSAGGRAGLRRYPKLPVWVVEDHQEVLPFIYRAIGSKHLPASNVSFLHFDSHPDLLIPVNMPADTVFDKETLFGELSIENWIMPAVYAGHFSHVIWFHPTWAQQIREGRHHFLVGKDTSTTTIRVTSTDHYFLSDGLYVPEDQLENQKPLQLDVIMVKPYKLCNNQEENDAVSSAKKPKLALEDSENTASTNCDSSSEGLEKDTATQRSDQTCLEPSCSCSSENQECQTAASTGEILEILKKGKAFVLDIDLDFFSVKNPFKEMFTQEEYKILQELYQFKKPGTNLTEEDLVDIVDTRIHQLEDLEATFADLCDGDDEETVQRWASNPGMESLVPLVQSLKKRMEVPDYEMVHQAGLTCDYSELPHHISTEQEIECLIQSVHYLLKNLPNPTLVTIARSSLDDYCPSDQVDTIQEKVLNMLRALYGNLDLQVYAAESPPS
UniProt Q9H3H3: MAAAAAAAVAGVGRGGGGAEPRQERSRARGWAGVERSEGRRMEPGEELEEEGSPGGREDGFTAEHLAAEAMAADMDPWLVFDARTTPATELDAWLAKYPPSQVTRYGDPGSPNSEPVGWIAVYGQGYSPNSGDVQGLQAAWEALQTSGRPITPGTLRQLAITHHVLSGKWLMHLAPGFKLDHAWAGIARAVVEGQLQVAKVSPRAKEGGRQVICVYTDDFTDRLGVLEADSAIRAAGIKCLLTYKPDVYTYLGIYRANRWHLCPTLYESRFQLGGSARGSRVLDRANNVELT
UniProt Q9BRD0: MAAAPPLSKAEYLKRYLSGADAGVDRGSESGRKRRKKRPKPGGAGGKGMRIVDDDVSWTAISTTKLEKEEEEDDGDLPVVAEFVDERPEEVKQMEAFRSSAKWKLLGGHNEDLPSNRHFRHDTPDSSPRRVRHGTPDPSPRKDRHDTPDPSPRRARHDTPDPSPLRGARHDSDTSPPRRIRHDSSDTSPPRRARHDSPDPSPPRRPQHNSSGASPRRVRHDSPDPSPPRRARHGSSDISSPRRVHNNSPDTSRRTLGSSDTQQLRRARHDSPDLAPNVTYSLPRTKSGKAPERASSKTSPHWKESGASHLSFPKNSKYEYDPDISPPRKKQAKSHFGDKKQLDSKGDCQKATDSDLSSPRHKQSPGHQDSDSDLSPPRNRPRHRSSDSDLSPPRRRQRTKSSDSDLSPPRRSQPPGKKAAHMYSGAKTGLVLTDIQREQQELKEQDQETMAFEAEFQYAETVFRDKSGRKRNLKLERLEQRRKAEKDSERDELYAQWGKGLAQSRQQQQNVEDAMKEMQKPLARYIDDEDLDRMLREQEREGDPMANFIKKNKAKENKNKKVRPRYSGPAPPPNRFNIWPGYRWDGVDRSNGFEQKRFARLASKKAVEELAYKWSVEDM
UniProt Q6P1S2: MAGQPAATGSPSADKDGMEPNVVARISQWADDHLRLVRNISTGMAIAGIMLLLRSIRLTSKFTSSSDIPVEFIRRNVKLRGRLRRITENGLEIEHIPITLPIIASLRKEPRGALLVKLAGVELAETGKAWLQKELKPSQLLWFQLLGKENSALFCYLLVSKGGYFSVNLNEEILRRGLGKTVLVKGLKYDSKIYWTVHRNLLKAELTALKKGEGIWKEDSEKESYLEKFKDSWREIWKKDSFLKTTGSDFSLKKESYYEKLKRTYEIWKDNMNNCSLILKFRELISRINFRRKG
UniProt P40121: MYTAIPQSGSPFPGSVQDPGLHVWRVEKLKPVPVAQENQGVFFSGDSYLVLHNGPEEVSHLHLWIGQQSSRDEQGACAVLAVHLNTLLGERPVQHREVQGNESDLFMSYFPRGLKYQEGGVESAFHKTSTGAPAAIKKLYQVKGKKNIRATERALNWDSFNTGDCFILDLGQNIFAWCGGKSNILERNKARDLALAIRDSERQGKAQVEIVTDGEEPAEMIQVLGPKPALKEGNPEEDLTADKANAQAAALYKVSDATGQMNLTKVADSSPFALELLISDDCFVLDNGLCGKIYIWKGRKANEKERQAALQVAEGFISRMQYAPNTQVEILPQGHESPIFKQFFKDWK

What was measured:
Test in all cases: log2 fold change, soluble protein after heating vs DMSO (PISA); higher = thermal stabilisation; K562 cells, 10 uM, 30 min; active = over 0.2 and 3.5 SD of the protein, either way, in both replicates (recomputed)
[1] = compound: COC1=CC=C(C=C1)CN2C=CC3=C2C=C(C=C3)C(=O)NO
Method in brief: (§1)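 Aliquots of K562 cells (2×10^6 cells/mL) treated with 10 μM compound for 30 min were heated for 3 min over 48°C-58°C. After pooling and extraction in PBS with 0.5% NP-40 at 4°C, soluble protein from a 21,000xg, 90 min spin was quantified by TMTpro 16plex LC-MS/MS with channel sums equalised. Thermal stability is expressed against control samples, from duplicates, as a log2 fold change.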

[2] = compound: CON(C)C(=O)N1N=C(c2cc(F)ccc2F)S[C@@]1(CCCN)c1ccccc1 [filanesib]
Method in brief: as §1

[3] = compound: CO[C@H]1C[C@@H]2CC[C@@H](C)[C@@](O)(O2)C(=O)C(=O)N2CCCC[C@H]2C(=O)O[C@H]([C@H](C)C[C@@H]2CC[C@H](n3cnnn3)[C@H](OC)C2)CC(=O)[C@H](C)/C=C(\C)[C@@H](O)[C@@H](OC)C(=O)[C@H](C)C[C@H](C)/C=C/C=C/C=C/1C [zotarolimus]
Method in brief: as §1

[4] = compound: COc1cc(C(=O)O)ccc1NC(=O)[C@@H]1N[C@@H](CC(C)(C)C)[C@](C#N)(c2ccc(Cl)cc2F)[C@H]1c1cccc(Cl)c1F [idasanutlin]
Method in brief: as §1

[5] = compound: COc1cc(Nc2ncc3c(n2)-c2ccc(Cl)cc2C(c2c(F)cccc2OC)=NC3)ccc1C(=O)O [alisertib]
Method in brief: as §1

[6] = compound: COc1cc2nc(-c3cc(F)ccc3O)nc(N[C@@H]3CNC[C@H]3C(C)(C)O)c2cc1OC
Method in brief: as §1

[7] = compound: COc1cc2ncnc(Nc3ccc(F)c(Cl)c3)c2cc1OCCCN1CCOCC1 [gefitinib]
Method in brief: as §1

[8] = compound: COc1cccc2cc(-c3nc([C@H]4CC[C@H](C(=O)O)CC4)n4ncnc(N)c34)[nH]c12
Method in brief: as §1

[9] = compound: CS(=O)(=O)CCNCc1ccc(-c2ccc3ncnc(Nc4ccc(OCc5cccc(F)c5)c(Cl)c4)c3c2)o1 [lapatinib]
Method in brief: as §1

[10] = compound: CS(=O)(=O)N1CCN(Cc2cc3nc(-c4cccc5[nH]ncc45)nc(N4CCOCC4)c3s2)CC1 [pictilisib]
Method in brief: as §1

[11] = compound: CS(=O)(=O)c1ccc(-c2cnc(N)c(C(=O)Nc3ccccc3)n2)cc1
Method in brief: as §1

[12] = compound: C[C@@H](Oc1cc(-c2cnn(C3CCNCC3)c2)cnc1N)c1c(Cl)ccc(F)c1Cl [crizotinib]
Method in brief: as §1

[13] = compound: C[C@@H]1COCCN1C2=NC(=NC(=C2)C3(CC3)S(=O)(=O)C)C4=C5C=CNC5=CC=C4
Method in brief: as §1

[14] = compound: C[C@H](C1=CC=C(C=C1)C(=O)NC2=C3C=CNC3=NC=C2)N
Method in brief: as §1

[15] = compound: C[C@H](Nc1ncnc2nc[nH]c12)c1cc2cccc(Cl)c2c(=O)n1-c1ccccc1 [duvelisib]
Method in brief: as §1

[16] = compound: Cc1cc(Nc2cc(CN3CCOCC3)c3nc(C)c(Cc4ccc(Cl)cc4F)n3n2)n[nH]1 [gandotinib]
Method in brief: as §1

[17] = compound: Cc1cc(Nc2cc(N3CCN(C)CC3)nc(Sc3ccc(NC(=O)C4CC4)cc3)n2)n[nH]1 [tozasertib]
Method in brief: as §1

[18] = compound: Cc1cc(SCc2sc(-c3ccc(C(F)(F)F)cc3)nc2C)ccc1OCC(=O)O
Method in brief: as §1

[19] = compound: Cc1ccc(-n2nc(C(C)(C)C)cc2NC(=O)Nc2ccc(OCCN3CCOCC3)c3ccccc23)cc1 [doramapimod]
Method in brief: as §1

[20] = compound: Cc1ccc(C(=O)N(CCCN)[C@@H](c2nc3cc(Cl)ccc3c(=O)n2Cc2ccccc2)C(C)C)cc1 [ispinesib]
Method in brief: as §1

Measured: log2 fold change

BUB3 (UniProt O43684)
inactive: [1] -0.014 | [2] -0.028 | [3] -0.038 | [4] -0.024 | [5] -0.039 | [6] 0.04 | [7] 0.001 | [8] 0.027 | [9] -0.028 | [10] 0.05 | [11] 0.008 | [12] 0.034 | [13] -0.004 | [14] -0.013 | [15] 0.032 | [16] 0.016 | [17] -0.01 | [18] -0.012 | [19] -0.003 | [20] 0.012

C6orf47 (UniProt O95873)
inactive: [1] -0.04 | [2] -0.044 | [3] -0.034 | [4] -0.017 | [5] 0.008 | [6] -0.018 | [7] -0.058 | [8] 0.097 | [9] 0.002 | [10] 0.017 | [11] -0.023 | [12] -0.002 | [13] 0.036 | [14] 0.01 | [15] -0.027 | [16] 0.121 | [17] -0.012 | [18] -0.107 | [19] -0.019 | [20] -0.129

C6orf89 isoform 2 (UniProt Q6UWU4)
inactive: [1] -0.105 | [2] -0.099 | [3] 0.02 | [4] 0.013 | [5] -0.043 | [6] -0.073 | [7] -0.014 | [8] 0.075 | [9] -0.007 | [10] 0.041 | [11] -0.042 | [12] 0.084 | [13] 0.07 | [14] -0.036 | [15] 0.09 | [16] 0.032 | [17] -0.013 | [18] -0.043 | [19] -0.033 | [20] -0.02

BUD23 isoform 3 (UniProt O43709)
inactive: [1] -0.08 | [2] 0.092 | [3] -0.021 | [4] 0.001 | [5] -0.006 | [6] 0.011 | [7] -0.038 | [8] -0.061 | [9] 0.034 | [10] 0.011 | [11] -0.002 | [12] -0.002 | [13] -0.021 | [14] 0.176 | [15] 0.028 | [16] -0.043 | [17] -0.036 | [18] 0.044 | [19] 0.062 | [20] -0.046

C2CD2 (UniProt Q9Y426)
inactive: [1] 0.031 | [2] 0.146 | [3] 0.02 | [4] 0.025 | [5] 0.004 | [6] 0.1 | [7] 0.073 | [8] 0.041 | [9] 0.026 | [10] 0.063 | [11] 0.119 | [12] -0.03 | [13] 0.128 | [14] 0.138 | [15] 0.008 | [16] -0.048 | [17] -0.005 | [18] -0.07 | [19] -0.01 | [20] -0.102

BSG (UniProt P35613)
inactive: [1] -0.043 | [2] 0.048 | [3] -0.053 | [4] 0.027 | [5] -0.081 | [6] 0.042 | [7] 0.042 | [8] 0.067 | [9] -0.051 | [10] 0.077 | [11] -0.002 | [12] 0.138 | [13] 0.056 | [14] 0.08 | [15] 0.107 | [16] -0.068 | [17] -0.058 | [18] -0.019 | [19] 0.004 | [20] 0.111

CAB39 (UniProt Q9Y376)
inactive: [1] -0.04 | [2] -0.028 | [3] -0.007 | [4] -0.022 | [5] -0.039 | [6] 0.042 | [7] 0.009 | [8] 0.069 | [9] -0.034 | [10] 0.028 | [11] 0.025 | [12] 0.039 | [13] 0.1 | [14] -0.089 | [15] 0.053 | [16] 0.003 | [17] 0.014 | [18] -0.027 | [19] -0.052 | [20] 0.038

CARHSP1 (UniProt Q9Y2V2)
inactive: [1] -0.023 | [2] -0.005 | [3] -0.038 | [4] -0.015 | [5] 0.014 | [6] -0.089 | [7] 0.072 | [8] -0.051 | [9] 0.004 | [10] 0.089 | [11] 0.07 | [12] 0.022 | [13] -0.026 | [14] -0.05 | [15] 0.023 | [16] -0.087 | [17] 0.029 | [18] -0.007 | [19] -0.026 | [20] 0.092

C1QBP (UniProt Q07021)
inactive: [1] -0.015 | [2] 0.005 | [3] 0.013 | [4] -0.038 | [5] -0.055 | [6] 0.043 | [7] 0.013 | [8] 0.02 | [9] -0.014 | [10] 0.028 | [11] 0.002 | [12] 0.081 | [13] 0.035 | [14] -0.036 | [15] 0.023 | [16] -0.034 | [17] -0.078 | [18] -0.001 | [19] -0.045 | [20] 0.006

C2orf49 (UniProt Q9BVC5)
inactive: [1] -0.012 | [2] 0.36 | [3] 0.254 | [4] 0.085 | [5] -0.089 | [6] 0.169 | [7] -0.029 | [8] -0.13 | [9] -0.044 | [10] -0.067 | [11] -0.015 | [12] -0.041 | [13] -0.395 | [14] 0.293 | [15] -0.12 | [16] -0.054 | [17] 0.073 | [18] 0.15 | [19] 0.137 | [20] -0.023

Reprinted at random: 2 entries already listed
CAB39 (UniProt Q9Y376)
inactive: [1] -0.04 | [2] -0.028 | [3] -0.007 | [4] -0.022 | [5] -0.039 | [6] 0.042 | [7] 0.009 | [8] 0.069 | [9] -0.034 | [10] 0.028 | [11] 0.025 | [12] 0.039 | [13] 0.1 | [14] -0.089 | [15] 0.053 | [16] 0.003 | [17] 0.014 | [18] -0.027 | [19] -0.052 | [20] 0.038

BSG (UniProt P35613)
inactive: [1] -0.043 | [2] 0.048 | [3] -0.053 | [4] 0.027 | [5] -0.081 | [6] 0.042 | [7] 0.042 | [8] 0.067 | [9] -0.051 | [10] 0.077 | [11] -0.002 | [12] 0.138 | [13] 0.056 | [14] 0.08 | [15] 0.107 | [16] -0.068 | [17] -0.058 | [18] -0.019 | [19] 0.004 | [20] 0.111

Going on with the list.

CALU isoform 3 (UniProt O43852)
inactive: [1] -0.043 | [2] -0.007 | [3] -0.035 | [4] 0.019 | [5] -0.038 | [6] 0.012 | [7] 0.004 | [8] 0.058 | [9] -0.003 | [10] 0.001 | [11] 0.014 | [12] 0.04 | [13] -0.009 | [14] -0.009 | [15] 0.018 | [16] 0.006 | [17] -0.002 | [18] -0.05 | [19] -0.007 | [20] 0

C5orf22 (UniProt Q49AR2)
inactive: [1] -0.045 | [2] -0.086 | [3] -0.035 | [4] -0.058 | [5] -0.058 | [6] 0.099 | [7] -0.03 | [8] -0.005 | [9] 0.017 | [10] 0.044 | [11] 0.019 | [12] -0.029 | [13] 0.008 | [14] 0.005 | [15] 0.027 | [16] 0.005 | [17] -0.037 | [18] 0.032 | [19] 0.016 | [20] -0.019

C11orf68 (UniProt Q9H3H3)
inactive: [1] -0.01 | [2] -0.092 | [3] -0.013 | [4] -0.022 | [5] -0.026 | [6] -0.042 | [7] 0.032 | [8] 0.046 | [9] 0.144 | [10] 0.024 | [11] 0.04 | [12] 0.02 | [13] -0.028 | [14] -0.064 | [15] 0.008 | [16] -0.1 | [17] -0.025 | [18] 0.047 | [19] -0.038 | [20] -0.023

BUD13 (UniProt Q9BRD0)
inactive: [1] -0.234 | [2] 0.313 | [3] -0.039 | [4] 0.3 | [5] -0.184 | [6] -0.142 | [7] -0.09 | [8] -0.007 | [9] 0.114 | [10] -0.037 | [11] -0.072 | [12] -0.149 | [13] -0.36 | [14] 0.126 | [15] -0.107 | [16] 0.07 | [17] 0.099 | [18] -0.033 | [19] 0.206 | [20] -0.209

C3orf33 (UniProt Q6P1S2)
inactive: [1] -0.008 | [2] 0.027 | [3] -0.003 | [4] -0.046 | [5] -0.029 | [6] 0.084 | [7] 0.143 | [8] 0 | [9] 0.052 | [10] 0.046 | [11] -0.04 | [12] 0.042 | [13] 0.059 | [14] 0.05 | [15] 0.028 | [16] 0 | [17] -0.018 | [18] 0.031 | [19] -0.009 | [20] -0.19

CAPG (UniProt P40121)
inactive: [1] 0.101 | [2] -0.045 | [3] 0.018 | [4] -0.095 | [5] 0.053 | [6] 0.008 | [7] 0.013 | [8] -0.017 | [9] 0.025 | [10] 0.036 | [11] -0.038 | [12] 0.039 | [13] 0.017 | [14] -0.074 | [15] 0.015 | [16] -0.044 | [17] 0.064 | [18] 0.04 | [19] 0.008 | [20] 0.058
